Here are results for 42 sequences from publication PMC7819943, “Rice protein-binding microarrays: a tool to detect cis-acting elements near promoter regions in rice”.

Amino acid sequences for entries named in this document (tags omitted).
UniProt Q0JBA9, entry or part of it: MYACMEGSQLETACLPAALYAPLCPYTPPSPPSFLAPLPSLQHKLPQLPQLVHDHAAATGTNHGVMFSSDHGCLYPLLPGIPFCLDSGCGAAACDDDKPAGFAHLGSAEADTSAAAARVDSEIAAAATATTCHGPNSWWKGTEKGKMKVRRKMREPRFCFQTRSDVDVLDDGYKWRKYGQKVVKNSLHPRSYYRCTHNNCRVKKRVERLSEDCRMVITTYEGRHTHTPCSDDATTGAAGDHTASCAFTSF

Some of the results follow.

The target of the assay is OsWRKY34 (Oryza sativa, UniProt Q0JBA9 1-250). The experiment in a line: protein-binding microarray (RPBM); PBS, 2% BSA, 51.3 ng/ul salmon testes DNA, 50 uM zinc acetate, 200 nM TF, 25 C, 1 h; high values mean tight binding. The following applies: protein: recombinant; tags: N-terminal polyhistidine and DsRed monomer fusion (pET32a); label: CyDye5-dUTP incorporated in the synthesized complementary strand; 3' TTTTT single-stranded linker to array surface; dsDNA, one strand shown. The gist of the method: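 An Axon 4000B scanner gave the binding signal as per-feature fluorescence intensity in arbitrary units. This followed washing of a custom Agilent array that had been incubated for 1 h at 25 °C with 200 nM protein in PBS, 2% BSA, salmon testes DNA and 50 µM zinc acetate. The proteins were transcription factors fused at the N-terminus to polyhistidine and DsRed, expressed in E. coli BL21-CodonPlus and purified on Ni–NTA.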
In the case of “GCGAGCTCCTACGCCGTCAACTTCCCGCCGCTGCTGCCCGCGGAGTCACCTAGTGCAG”, the binding signal is 8910 fluorescence intensity (a.u.).
Take “CAGTTTGCACTGCATCCCGGCGCGACATTACGTCGAACACCGGAGTCACCTAGTGCAG”: the binding signal is 8240 fluorescence intensity (a.u.).
The figure for “TTCTTCTCTGATGCATCCTGTTCTCCACCATTCCATCTCTCGGAGTCACCTAGTGCAG” is 8690 fluorescence intensity (a.u.); for “CTAGTCCATCGATCGAGGTTACACGCATGACGTACATAATCGGAGTCACCTAGTGCAG” it is 8440 fluorescence intensity (a.u.).
“TTCTTCTCTACCTGCATTAATTTGGTTTTGTTTTAAGTGACGGAGTCACCTAGTGCAG”: the binding signal was 9770 fluorescence intensity (a.u.).
On to “GATCTCTGCCTATTCTTCTCTTCCACCGGCGACAAGATCGCGGAGTCACCTAGTGCAG”, for which the binding signal was 9710 fluorescence intensity (a.u.).
“TAGACAGTCCCATTCCACCACCTCAGCTGCCGTGAAAGAACGGAGTCACCTAGTGCAG”: the binding signal is 9010 fluorescence intensity (a.u.).
The figure for “CGTCTCTTCTCTCCCGCTCCTTGCGCCATCTCGCGGCTGACGGAGTCACCTAGTGCAG” is 9810 fluorescence intensity (a.u.); for “CTGCTTCCGTGTTGATACTTTCTTGGTACTGAACTACTTACGGAGTCACCTAGTGCAG” it is 8890 fluorescence intensity (a.u.).
The figure for “TTTTTGGTTTTTTGTCGAGGATAAATCCTCGCGTTTTTCTCGGAGTCACCTAGTGCAG” is 9260 fluorescence intensity (a.u.); for “GCATACGCAACCTCACTGATCTCTCCCTGCGCCATAACAACGGAGTCACCTAGTGCAG” it is 9800 fluorescence intensity (a.u.).
For “GAAATTTTGTGTGTTTTCAGGCTATACTCAGAACTGACCTCGGAGTCACCTAGTGCAG” the value was 8920 fluorescence intensity (a.u.); for “GAGGTTTTGGTTGACGTGGCGCCTATATGACGGTGTTGACCGGAGTCACCTAGTGCAG”, 11300 fluorescence intensity (a.u.); for “CGGGACACACGTCTTACACATCAGCATTTGCTAAGCATACCGGAGTCACCTAGTGCAG”, 9460 fluorescence intensity (a.u.).
Take “ATTGAATCAGGATATTTTACTTTCGCCTTTGCTCTGAAAACGGAGTCACCTAGTGCAG”: the binding signal was 8880 fluorescence intensity (a.u.).
The figure for “TGTTTGCTTCATACTAAGATTTCGGTTGTTCAAGCTTTCGCGGAGTCACCTAGTGCAG” is 8290 fluorescence intensity (a.u.).
The figure for “CAGTGGTCCTGATTATACTATGGAATATATTCCATTATTACGGAGTCACCTAGTGCAG” is 8090 fluorescence intensity (a.u.); for “TGGAACCGGATTTTTTTAGTTGTTTTTCGCTATTTTTTCCCGGAGTCACCTAGTGCAG” it is 9760 fluorescence intensity (a.u.); for “CTCCTCATCCATCCACCACACCACTTGCCTCCAAACAAAACGGAGTCACCTAGTGCAG” it is 9340 fluorescence intensity (a.u.).
The figure for “TGTGACAGTTTTTATTTATCTTAATTACTATCTTTTTTTTCGGAGTCACCTAGTGCAG” is 9900 fluorescence intensity (a.u.).
In the case of “CTCTCTCCTCGCGTCTGCGTGTCAACGCCTACACAAACAGCGGAGTCACCTAGTGCAG”, the binding signal is 8530 fluorescence intensity (a.u.).
The figure for “GAATTGCAAGTTTTCTGTTTACCCTGCTTCTTATTATTTTCGGAGTCACCTAGTGCAG” is 13800 fluorescence intensity (a.u.); for “CCACTGCAGCCGTCTTTACTCTTTCTTTTGCAAAAAAAAACGGAGTCACCTAGTGCAG” it is 9160 fluorescence intensity (a.u.).
With “ACTGACGATCAATGCTGCGCTGGATGATTTTGCTTTCAAACGGAGTCACCTAGTGCAG”, the binding signal was 8420 fluorescence intensity (a.u.).
For “TTTGGTTACCGCATTTTTGTGTTCTTCTGTGCAGTTTAGCCGGAGTCACCTAGTGCAG” the value was 8150 fluorescence intensity (a.u.); for “ACGGCACCTCATAGATTATTCCGTCCGTTCCAACAACCTCCGGAGTCACCTAGTGCAG”, 8320 fluorescence intensity (a.u.); for “ATATCATGCAATCAACAGAGAGTACAACTTGTTCCTACCACGGAGTCACCTAGTGCAG”, 8030 fluorescence intensity (a.u.).
Take “GACAAGGTTTGACTAAAAGATGGGTGTATCACATGTGGGCCGGAGTCACCTAGTGCAG”: the binding signal was 9140 fluorescence intensity (a.u.).
For “ACTTCCAAGTCTTCGACCGCGACACTCCTTACCCGCACGCCGGAGTCACCTAGTGCAG” the value was 8570 fluorescence intensity (a.u.).
As to “ATATCCAACTTTAATCGTCCATTTTATTTGTTTTTTTTAACGGAGTCACCTAGTGCAG”, the binding signal is 9110 fluorescence intensity (a.u.).
For “TCATGGCTTGTAGGTTTTCAGCTGCTTTCTGCTAAGTACACGGAGTCACCTAGTGCAG” the value was 9310 fluorescence intensity (a.u.); for “TATTAGTGTTTTATTTTCACCGGTTAATATTTTTGTTCTTCGGAGTCACCTAGTGCAG”, 8880 fluorescence intensity (a.u.).
For “CCCTCCATTTTTTTTTTCTTATTTCGCGCTCTCTCTCCAACGGAGTCACCTAGTGCAG” the value was 8690 fluorescence intensity (a.u.).
Consider “ACTATACTTGGTATACTTGGTCCGGGGTTTGTTCATCTTGCGGAGTCACCTAGTGCAG”, for which the binding signal is 8640 fluorescence intensity (a.u.).
For “TGACGATGACTGGAACTCCAAGCCTCCAACTAGTTATTTTCGGAGTCACCTAGTGCAG” the value was 8370 fluorescence intensity (a.u.).
The figure for “GTTTGCATGTTAAGCTTTAGGATTTGGTGGGTTATAATTTCGGAGTCACCTAGTGCAG” is 10800 fluorescence intensity (a.u.); for “CTCTCCACCGCCATTAACGGTTACTTATCTCTCTAGTACTCGGAGTCACCTAGTGCAG” it is 8060 fluorescence intensity (a.u.).
The figure for “ACGTACGCCTTCATCGACGCTTAATCGATCTGTTTCCATGCGGAGTCACCTAGTGCAG” is 8960 fluorescence intensity (a.u.); for “AGATACTCATTTCCACCTCTTCCTCTCAAGTTATTACACTCGGAGTCACCTAGTGCAG” it is 10000 fluorescence intensity (a.u.).
As for “TTTTCAGGTGGAATTTGTAATTTGTTTTGTTATTAGGCTACGGAGTCACCTAGTGCAG”, the binding signal was 8130 fluorescence intensity (a.u.).
The figure for “ATATTTTGTTGCACCCTTTTGGTTATGCAATTGCTACACTCGGAGTCACCTAGTGCAG” is 11600 fluorescence intensity (a.u.).
For “ATTCGGACGGTGTTTGATCTTTCTGTCGTGATTGCTTTGCCGGAGTCACCTAGTGCAG” the value was 9040 fluorescence intensity (a.u.).
